Data as given in PMC10077476.
Results are given in words; binding and its absence hold for the method and conditions named. For part of these data: Binding seen in cells or lysates may run through a third protein. Some entries that bind do so weakly or less than the wild type. Where a sequence is shown, tags or fusion partners need not be part of it.

Legend:
myc-Prdm6 (COS-7) = biological target: T1, myc-Prdm6 (COS-7) (UniProt Q3UZD5); test: co-IP; COS-7 cells transfected with epitope-tagged Prdm6 and MRTF-A constructs; RIPA lysates, anti-myc or anti-flag IP overnight at 4°C, washed in 20 mM Tris HCl pH 7.3, 150 mM NaCl, 10% glycerol, 0.5% Triton X-100; Western blot; in separate experiments cytochalasin D was included
T1 sequence: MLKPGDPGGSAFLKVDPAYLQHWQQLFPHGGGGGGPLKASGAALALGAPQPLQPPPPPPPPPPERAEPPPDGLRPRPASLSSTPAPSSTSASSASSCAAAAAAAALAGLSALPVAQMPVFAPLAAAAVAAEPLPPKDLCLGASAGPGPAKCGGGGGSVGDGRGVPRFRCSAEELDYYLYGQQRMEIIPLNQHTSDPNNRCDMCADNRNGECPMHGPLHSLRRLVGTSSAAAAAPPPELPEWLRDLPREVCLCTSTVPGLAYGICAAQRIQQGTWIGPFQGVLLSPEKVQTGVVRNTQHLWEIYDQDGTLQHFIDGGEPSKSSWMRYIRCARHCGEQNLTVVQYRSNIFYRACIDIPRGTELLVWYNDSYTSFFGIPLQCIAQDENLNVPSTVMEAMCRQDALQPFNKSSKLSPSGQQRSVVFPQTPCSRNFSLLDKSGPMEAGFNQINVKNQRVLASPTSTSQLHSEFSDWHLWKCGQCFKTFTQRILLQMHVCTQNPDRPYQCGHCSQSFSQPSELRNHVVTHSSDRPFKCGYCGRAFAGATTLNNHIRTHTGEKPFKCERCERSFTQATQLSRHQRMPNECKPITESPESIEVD

myc-Prdm6 (10T1/2) = biological target: T2, myc-Prdm6 (10T1/2) (UniProt Q3UZD5); test: co-IP; 10T1/2 cells transfected with myc-Prdm6 or empty vector; myc and control IgG immunoprecipitates probed with an Ab against endogenous MRTF-A
T2 sequence: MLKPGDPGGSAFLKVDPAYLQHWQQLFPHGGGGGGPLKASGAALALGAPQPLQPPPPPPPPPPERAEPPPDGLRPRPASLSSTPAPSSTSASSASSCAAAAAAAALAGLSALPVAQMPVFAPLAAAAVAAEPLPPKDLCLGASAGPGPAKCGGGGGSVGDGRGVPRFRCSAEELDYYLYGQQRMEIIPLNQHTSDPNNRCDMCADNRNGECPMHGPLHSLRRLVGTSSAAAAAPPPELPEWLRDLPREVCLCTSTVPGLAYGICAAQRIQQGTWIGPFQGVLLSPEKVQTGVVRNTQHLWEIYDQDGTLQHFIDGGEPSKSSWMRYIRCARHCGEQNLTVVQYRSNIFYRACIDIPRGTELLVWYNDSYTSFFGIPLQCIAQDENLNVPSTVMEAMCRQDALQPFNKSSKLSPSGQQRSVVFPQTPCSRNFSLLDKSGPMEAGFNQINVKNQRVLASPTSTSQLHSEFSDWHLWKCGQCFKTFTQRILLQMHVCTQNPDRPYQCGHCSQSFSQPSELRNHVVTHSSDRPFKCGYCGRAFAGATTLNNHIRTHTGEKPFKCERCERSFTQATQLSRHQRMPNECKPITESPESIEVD

[1] = biological target: T3, flag-MRTF-A, full-length (COS-7) (UniProt Q8K4J6); test: far-Western, overlay or dot blot; flag-tagged MRTF-A variants immunoprecipitated from COS-7 cells, resolved by SDS-PAGE, transferred to nitrocellulose and renatured; incubated with recombinant GST-PRDM6 in blocking buffer (20% goat serum, 3% BSA, in PBS); probed with anti-GST Ab; both purified
T3 sequence: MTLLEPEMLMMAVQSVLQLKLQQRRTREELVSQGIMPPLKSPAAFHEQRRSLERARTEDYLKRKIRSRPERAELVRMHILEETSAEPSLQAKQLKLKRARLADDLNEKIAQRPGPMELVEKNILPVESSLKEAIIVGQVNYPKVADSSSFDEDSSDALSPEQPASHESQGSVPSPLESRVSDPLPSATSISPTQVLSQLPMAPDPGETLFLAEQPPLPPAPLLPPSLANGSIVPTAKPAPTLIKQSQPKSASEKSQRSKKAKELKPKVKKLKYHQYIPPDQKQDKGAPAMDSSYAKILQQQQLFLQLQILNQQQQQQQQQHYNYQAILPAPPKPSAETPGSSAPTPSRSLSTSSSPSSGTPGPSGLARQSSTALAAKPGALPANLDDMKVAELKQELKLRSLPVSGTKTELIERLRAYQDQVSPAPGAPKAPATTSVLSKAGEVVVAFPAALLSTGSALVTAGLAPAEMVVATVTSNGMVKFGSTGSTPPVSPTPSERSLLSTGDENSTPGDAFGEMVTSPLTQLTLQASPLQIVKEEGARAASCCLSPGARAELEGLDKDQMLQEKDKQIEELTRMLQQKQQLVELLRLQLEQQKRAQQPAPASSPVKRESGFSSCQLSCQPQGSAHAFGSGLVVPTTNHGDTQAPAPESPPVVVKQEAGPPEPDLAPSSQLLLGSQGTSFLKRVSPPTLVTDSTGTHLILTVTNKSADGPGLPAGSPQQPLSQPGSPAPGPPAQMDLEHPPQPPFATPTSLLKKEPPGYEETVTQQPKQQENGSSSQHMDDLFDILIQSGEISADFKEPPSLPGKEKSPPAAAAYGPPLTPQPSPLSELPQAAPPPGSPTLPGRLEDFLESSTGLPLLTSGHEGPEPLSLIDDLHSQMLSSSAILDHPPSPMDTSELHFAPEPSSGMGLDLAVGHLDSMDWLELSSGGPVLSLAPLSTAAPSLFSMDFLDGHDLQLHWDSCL

B1: flag-MRTF-A, full-length (COS-7) (protein, UniProt Q8K4J6 1-964)
chain: MTLLEPEMLMMAVQSVLQLKLQQRRTREELVSQGIMPPLKSPAAFHEQRRSLERARTEDYLKRKIRSRPERAELVRMHILEETSAEPSLQAKQLKLKRARLADDLNEKIAQRPGPMELVEKNILPVESSLKEAIIVGQVNYPKVADSSSFDEDSSDALSPEQPASHESQGSVPSPLESRVSDPLPSATSISPTQVLSQLPMAPDPGETLFLAEQPPLPPAPLLPPSLANGSIVPTAKPAPTLIKQSQPKSASEKSQRSKKAKELKPKVKKLKYHQYIPPDQKQDKGAPAMDSSYAKILQQQQLFLQLQILNQQQQQQQQQHYNYQAILPAPPKPSAETPGSSAPTPSRSLSTSSSPSSGTPGPSGLARQSSTALAAKPGALPANLDDMKVAELKQELKLRSLPVSGTKTELIERLRAYQDQVSPAPGAPKAPATTSVLSKAGEVVVAFPAALLSTGSALVTAGLAPAEMVVATVTSNGMVKFGSTGSTPPVSPTPSERSLLSTGDENSTPGDAFGEMVTSPLTQLTLQASPLQIVKEEGARAASCCLSPGARAELEGLDKDQMLQEKDKQIEELTRMLQQKQQLVELLRLQLEQQKRAQQPAPASSPVKRESGFSSCQLSCQPQGSAHAFGSGLVVPTTNHGDTQAPAPESPPVVVKQEAGPPEPDLAPSSQLLLGSQGTSFLKRVSPPTLVTDSTGTHLILTVTNKSADGPGLPAGSPQQPLSQPGSPAPGPPAQMDLEHPPQPPFATPTSLLKKEPPGYEETVTQQPKQQENGSSSQHMDDLFDILIQSGEISADFKEPPSLPGKEKSPPAAAAYGPPLTPQPSPLSELPQAAPPPGSPTLPGRLEDFLESSTGLPLLTSGHEGPEPLSLIDDLHSQMLSSSAILDHPPSPMDTSELHFAPEPSSGMGLDLAVGHLDSMDWLELSSGGPVLSLAPLSTAAPSLFSMDFLDGHDLQLHWDSCL
- binding (myc-Prdm6 (COS-7)): binds

B2: endogenous MRTF-A (10T1/2 cells) (protein, UniProt Q8K4J6 1-964)
chain: MTLLEPEMLMMAVQSVLQLKLQQRRTREELVSQGIMPPLKSPAAFHEQRRSLERARTEDYLKRKIRSRPERAELVRMHILEETSAEPSLQAKQLKLKRARLADDLNEKIAQRPGPMELVEKNILPVESSLKEAIIVGQVNYPKVADSSSFDEDSSDALSPEQPASHESQGSVPSPLESRVSDPLPSATSISPTQVLSQLPMAPDPGETLFLAEQPPLPPAPLLPPSLANGSIVPTAKPAPTLIKQSQPKSASEKSQRSKKAKELKPKVKKLKYHQYIPPDQKQDKGAPAMDSSYAKILQQQQLFLQLQILNQQQQQQQQQHYNYQAILPAPPKPSAETPGSSAPTPSRSLSTSSSPSSGTPGPSGLARQSSTALAAKPGALPANLDDMKVAELKQELKLRSLPVSGTKTELIERLRAYQDQVSPAPGAPKAPATTSVLSKAGEVVVAFPAALLSTGSALVTAGLAPAEMVVATVTSNGMVKFGSTGSTPPVSPTPSERSLLSTGDENSTPGDAFGEMVTSPLTQLTLQASPLQIVKEEGARAASCCLSPGARAELEGLDKDQMLQEKDKQIEELTRMLQQKQQLVELLRLQLEQQKRAQQPAPASSPVKRESGFSSCQLSCQPQGSAHAFGSGLVVPTTNHGDTQAPAPESPPVVVKQEAGPPEPDLAPSSQLLLGSQGTSFLKRVSPPTLVTDSTGTHLILTVTNKSADGPGLPAGSPQQPLSQPGSPAPGPPAQMDLEHPPQPPFATPTSLLKKEPPGYEETVTQQPKQQENGSSSQHMDDLFDILIQSGEISADFKEPPSLPGKEKSPPAAAAYGPPLTPQPSPLSELPQAAPPPGSPTLPGRLEDFLESSTGLPLLTSGHEGPEPLSLIDDLHSQMLSSSAILDHPPSPMDTSELHFAPEPSSGMGLDLAVGHLDSMDWLELSSGGPVLSLAPLSTAAPSLFSMDFLDGHDLQLHWDSCL
- binding (myc-Prdm6 (10T1/2)): binds

B3: recombinant GST-PRDM6 protein (protein, UniProt Q3UZD5 1-596)
chain: MLKPGDPGGSAFLKVDPAYLQHWQQLFPHGGGGGGPLKASGAALALGAPQPLQPPPPPPPPPPERAEPPPDGLRPRPASLSSTPAPSSTSASSASSCAAAAAAAALAGLSALPVAQMPVFAPLAAAAVAAEPLPPKDLCLGASAGPGPAKCGGGGGSVGDGRGVPRFRCSAEELDYYLYGQQRMEIIPLNQHTSDPNNRCDMCADNRNGECPMHGPLHSLRRLVGTSSAAAAAPPPELPEWLRDLPREVCLCTSTVPGLAYGICAAQRIQQGTWIGPFQGVLLSPEKVQTGVVRNTQHLWEIYDQDGTLQHFIDGGEPSKSSWMRYIRCARHCGEQNLTVVQYRSNIFYRACIDIPRGTELLVWYNDSYTSFFGIPLQCIAQDENLNVPSTVMEAMCRQDALQPFNKSSKLSPSGQQRSVVFPQTPCSRNFSLLDKSGPMEAGFNQINVKNQRVLASPTSTSQLHSEFSDWHLWKCGQCFKTFTQRILLQMHVCTQNPDRPYQCGHCSQSFSQPSELRNHVVTHSSDRPFKCGYCGRAFAGATTLNNHIRTHTGEKPFKCERCERSFTQATQLSRHQRMPNECKPITESPESIEVD
- binding [1]: binds
